Measured values reported in paper PMC12224964.
These are yes or no findings as the source states them, for the method shown. Binding seen in cells or lysates may run through a third protein. Some results given as binding are weak or reduced against the parent protein; the word gives no strength.

T1: VPS41 (as in the co-immunoprecipitations with KAI1) (UniProt P49754)
T1 sequence: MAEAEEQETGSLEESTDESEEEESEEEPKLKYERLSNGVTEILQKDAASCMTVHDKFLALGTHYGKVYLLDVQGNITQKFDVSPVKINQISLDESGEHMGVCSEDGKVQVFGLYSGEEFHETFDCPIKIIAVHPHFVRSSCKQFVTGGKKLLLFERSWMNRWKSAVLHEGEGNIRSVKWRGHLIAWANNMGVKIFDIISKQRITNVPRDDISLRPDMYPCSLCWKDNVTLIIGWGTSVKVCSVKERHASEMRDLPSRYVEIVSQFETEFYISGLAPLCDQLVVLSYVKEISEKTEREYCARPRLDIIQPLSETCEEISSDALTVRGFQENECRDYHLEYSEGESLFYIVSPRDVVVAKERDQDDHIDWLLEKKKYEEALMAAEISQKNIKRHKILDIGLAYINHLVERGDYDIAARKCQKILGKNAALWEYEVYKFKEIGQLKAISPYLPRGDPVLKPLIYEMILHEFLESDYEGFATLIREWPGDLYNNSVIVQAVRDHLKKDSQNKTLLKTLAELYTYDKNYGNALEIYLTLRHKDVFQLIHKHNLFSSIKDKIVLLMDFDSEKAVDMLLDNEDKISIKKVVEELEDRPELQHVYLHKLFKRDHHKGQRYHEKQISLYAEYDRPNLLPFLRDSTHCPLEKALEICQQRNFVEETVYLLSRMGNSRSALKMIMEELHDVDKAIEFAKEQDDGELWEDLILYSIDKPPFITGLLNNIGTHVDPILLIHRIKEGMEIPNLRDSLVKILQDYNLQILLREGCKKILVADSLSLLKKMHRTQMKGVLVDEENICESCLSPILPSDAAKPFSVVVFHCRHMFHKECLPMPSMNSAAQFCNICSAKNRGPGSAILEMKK

T2: VPS41-1-286 (UniProt P49754)
T2 sequence: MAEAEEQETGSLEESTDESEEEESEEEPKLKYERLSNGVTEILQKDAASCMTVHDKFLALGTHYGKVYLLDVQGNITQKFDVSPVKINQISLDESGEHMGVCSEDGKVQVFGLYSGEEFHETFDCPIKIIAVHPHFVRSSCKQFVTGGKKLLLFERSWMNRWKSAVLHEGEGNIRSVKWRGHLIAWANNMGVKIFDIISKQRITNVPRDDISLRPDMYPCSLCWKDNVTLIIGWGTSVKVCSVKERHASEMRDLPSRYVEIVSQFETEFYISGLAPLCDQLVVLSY


What was measured:
[1] = molecular target: T1, VPS41 (as in the co-immunoprecipitations with KAI1); assay: co-IP; VPS41 with KAI1 (Figure 5F); also with PNGase F treatment (Figure 5G) and after CQ treatment of the cells (Figure 6E); cells and bait not told in the main text
[2] = molecular target: T2, VPS41-1-286; assay: co-IP; HEK-293T cells transfected with VPS41 or KAI1 truncation plasmids

binding [1] | binding [2] | Binder
binds | binds | KAI1 (as in the co-immunoprecipitations with VPS41) (protein, UniProt P27701 1-267, glycosylated (the paper speaks of the glycosylation on KAI1)) MGSACIKVTKYFLFLFNLIFFILGAVILGFGVWILADKSSFISVLQTSSSSLRMGAYVFIGVGAVTMLMGFLGCIGAVNEVRCLLGLYFAFLLLILIAQVTAGALFYFNMGKLKQEMGGIVTELIRDYNSSREDSLQDAWDYVQAQVKCCGWVSFYNWTDNAELMNRPEVTYPCSCEVKGEEDNSLSVRKGFCEAPGNRTQSGNHPEDWPVYQEGCMEKVQAWLQENLGIILGVGVGVAIIELLGMVLSICLCRHVHSEDYSKVPKY
binds |  | KAI1 treated with the glycosidase PNGase F (protein, UniProt P27701 1-267, treated with the glycosidase PNGase F) MGSACIKVTKYFLFLFNLIFFILGAVILGFGVWILADKSSFISVLQTSSSSLRMGAYVFIGVGAVTMLMGFLGCIGAVNEVRCLLGLYFAFLLLILIAQVTAGALFYFNMGKLKQEMGGIVTELIRDYNSSREDSLQDAWDYVQAQVKCCGWVSFYNWTDNAELMNRPEVTYPCSCEVKGEEDNSLSVRKGFCEAPGNRTQSGNHPEDWPVYQEGCMEKVQAWLQENLGIILGVGVGVAIIELLGMVLSICLCRHVHSEDYSKVPKY
